Assay results published in PMC3335779.
No constants are given. Whether binding was seen depends on the method and setting. Binding seen in cells or lysates may run through a third protein. A result given as binding can be weak or reduced; the word gives no strength.

T1: secreted protein acidic and rich in cysteine (SPARC) (mouse (endogenous in murine eyes)) (UniProt P07214)
T1 sequence: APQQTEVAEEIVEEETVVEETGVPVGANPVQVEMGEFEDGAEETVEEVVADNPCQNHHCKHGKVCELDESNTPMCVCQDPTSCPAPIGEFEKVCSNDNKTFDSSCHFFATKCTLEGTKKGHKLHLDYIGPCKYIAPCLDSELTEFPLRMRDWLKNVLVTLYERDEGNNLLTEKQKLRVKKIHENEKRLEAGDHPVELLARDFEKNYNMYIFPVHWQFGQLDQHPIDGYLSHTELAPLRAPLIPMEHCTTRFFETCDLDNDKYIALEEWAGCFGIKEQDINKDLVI


How the values were obtained:
[1] = target: T1, secreted protein acidic and rich in cysteine (SPARC) (mouse (endogenous in murine eyes)); assay: co-IP; mouse eye lysate in IP buffer (0.1% SDS, 0.5% sodium deoxycholate, protease inhibitors); antibody (anti-Pax6, anti-TGF-β or anti-SPARC) on protein-G resin, 60 min at 4 °C with lysate; immunoblot with ECL detection; negative control: protein-G slurry without primary antibody
[2] = target: transforming growth factor-beta (TGF-β) (mouse (endogenous in murine eyes)); assay: as above

| Molecule | binding [1] | binding [2] |
| --- | --- | --- |
| transforming growth factor-beta (TGF-β) (mouse (endogenous in murine eyes)) | binds |  |
| secreted protein acidic and rich in cysteine (SPARC) (protein, UniProt P07214 18-302) APQQTEVAEEIVEEETVVEETGVPVGANPVQVEMGEFEDGAEETVEEVVADNPCQNHHCKHGKVCELDESNTPMCVCQDPTSCPAPIGEFEKVCSNDNKTFDSSCHFFATKCTLEGTKKGHKLHLDYIGPCKYIAPCLDSELTEFPLRMRDWLKNVLVTLYERDEGNNLLTEKQKLRVKKIHENEKRLEAGDHPVELLARDFEKNYNMYIFPVHWQFGQLDQHPIDGYLSHTELAPLRAPLIPMEHCTTRFFETCDLDNDKYIALEEWAGCFGIKEQDINKDLVI |  | binds |
